Patent publication US11952431B2, “Neutrophil-binding peptides” (YISSUM RESEARCH DEVELOPMENT COMPANY OF THE HEBREW …, priority 2020, dated 2024)

System: mouse and human CD177
Test: Cross binding of 16-LQI and 16-KFP
Details: see FIG. 2D, 16-Cont.

Substance: 16-KFP: biotinylated KFP-tetramer multiantigen generated in the same manner as 16-LQI; tetramer-SA complex used as control on murine neutrophils [Peptide 16-KFP]
- cross binding between mouse and human: do not cross bind

Substance: 16-LQI: LQI tetramer-streptavidin (SA) complex, a 16-mer of the LQI-peptide [Peptide 16-LQI]
- cross binding between mouse and human: do not cross bind
